Assay results reported in PubChem BioAssay AID493014 (National Center for Advancing Translational Sciences (NCATS), 2011).
This is one part of the list. Further columns of the screen follow, without active or inactive calls. The list favours compounds with an active or inconclusive main result. Potencies come from curve fits of mixed quality, noted in brackets.

Assay: qHTS Assay to Find Inhibitors of Chronic Active B-Cell Receptor Signaling
Conditions: ABC-DLBCL IkBa-CBG/CBR reporter, luminescence ratio (green luciferase fused to IkBa over red control in TMD8 lymphoma cells), 4 h
Procedure, shortened: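 TMD8 ABC-DLBCL cells carrying doxycycline-inducible green luciferase fused to IkappaBalpha plus unfused red luciferase were exposed to compounds (up to 46 uM) for 4 hrs at 37C. Activity came from the overlap-corrected green/red luminescence ratio.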

[1] = measured here: CBR red luminescence, cell number
[2] = measured here: IkBa-CBG green luminescence

Row | Compound | AC50 [1] | AC50 [2]
1 | COc1ccc(C(=O)COc2cccc(NC(=O)c3ccco3)c2)cc1 | 25.9 µM [falling, single point] | 
2 | O=C(NCCO)Nc1ccc2nc(-c3ccco3)c(-c3ccco3)nc2c1 | 35.5 µM [falling, single point] | 17.8 µM [rising, partial curve, poor fit]
3 | COc1ccccc1NC(=O)Cn1nnc(C(=O)NCc2cccs2)c1N | 10 µM [rising, partial curve] | 5.62 µM [falling, partial curve]
4 | O=C1COc2ccc(S(=O)(=O)NCc3ccc(Cl)cc3)cc2N1 | 35.5 µM [falling, partial curve, poor fit] | 
5 | COc1cccc(C(=O)Nc2ccc(C3CC3(Cl)Cl)cc2)c1 (configuration not stated) | 11.2 µM [falling, partial curve, poor fit] | 
6 | Cc1nc(SCC(=O)NC2(C#N)CCCC2)n(CC(C)C)c1C | 16.4 µM [rising, partial curve, poor fit] | 
7 | Cc1ccc2cc3cc(C(=O)NCCC(C)C)oc3nc2c1 | 0.355 µM [rising, partial curve, poor fit] | 
8 | Cc1ccc(C)c(-n2cc(CN3CCCN(C=O)CC3)c(-c3ccccc3)n2)c1 | 6.31 µM [falling, single point] | 
9 | COc1cc(NC(=O)c2cc(-c3cccc(O)c3)on2)cc(OC)c1OC |  | 11.2 µM [falling, partial curve, poor fit]
10 | Cc1ccc(-c2noc(CCCC(=O)NCC3CCCO3)n2)cc1 (configuration not stated) | 35.5 µM [rising, single point] | 
11 | CCN(CC)CCn1c(=N)n(CC(O)COc2cccc(C)c2)c2ccccc21 (configuration not stated) | 25.1 µM [falling, single point] | 
12 | C/C=C/c1ccc(OCC(=O)OCc2csc(Nc3ccc(C)cc3)n2)c(OC)c1 | 7.31 µM [rising, partial curve] | 
13 | Cc1cc(C(=O)CCl)c(C)n1CCc1ccc(F)cc1 | 22.4 µM [falling, partial curve] | 
14 | O=C(/C=C/c1ccco1)Nc1cccc(S(=O)(=O)N2CCOCC2)c1 | 7.31 µM [falling, partial curve] | 
15 | O=C(COC(=O)c1ccccc1)c1ccc2c(c1)OCCO2 | 32.6 µM [falling, single point] | 
16 | CCOc1ccc(NC(=O)c2cccnc2Cl)c([N+](=O)[O-])c1 | 20.6 µM [rising, partial curve, poor fit] | 
17 | CC1CCCC(C)N1C(=O)COC(=O)COc1ccc(C#N)cc1 (configuration not stated) | 0.651 µM [rising, full curve, poor fit] | 
18 | CCCCCCCNC(=O)CN1N=C(c2ccc(C)cc2)CCC1=O | 5.62 µM [rising, single point] | 
19 | CC(C)(C)C(=O)CSc1nc2ccccc2o1 | 0.282 µM [rising, full curve, poor fit] | 

Arranged by length of the SMILES (rising): part of the list above
Row | Compound | AC50 [1] | AC50 [2]
19 | CC(C)(C)C(=O)CSc1nc2ccccc2o1 | 0.282 µM [rising, full curve, poor fit] | 
7 | Cc1ccc2cc3cc(C(=O)NCCC(C)C)oc3nc2c1 | 0.355 µM [rising, partial curve, poor fit] | 
15 | O=C(COC(=O)c1ccccc1)c1ccc2c(c1)OCCO2 | 32.6 µM [falling, single point] | 
2 | O=C(NCCO)Nc1ccc2nc(-c3ccco3)c(-c3ccco3)nc2c1 | 35.5 µM [falling, single point] | 17.8 µM [rising, partial curve, poor fit]
9 | COc1cc(NC(=O)c2cc(-c3cccc(O)c3)on2)cc(OC)c1OC |  | 11.2 µM [falling, partial curve, poor fit]
11 | CCN(CC)CCn1c(=N)n(CC(O)COc2cccc(C)c2)c2ccccc21 (configuration not stated) | 25.1 µM [falling, single point] | 
12 | C/C=C/c1ccc(OCC(=O)OCc2csc(Nc3ccc(C)cc3)n2)c(OC)c1 | 7.31 µM [rising, partial curve] | 

Following part:

Row | Compound | AC50 [1] | AC50 [2]
20 | O=C(O)CC12CC3CC(C1)CC(n1ncc(N4CCC5(CC4)OCCO5)c(Cl)c1=O)(C3)C2 | 25.1 µM [falling, partial curve, poor fit] | 
21 | O=C(Nc1ccc(Br)cc1)c1ccc2ncsc2c1 | 7.94 µM [falling, partial curve] | 
22 | Cc1ccc2occ(/C=N/NC(=O)c3ccc(O)cc3)c(=O)c2c1 | 0.112 µM [falling, full curve, poor fit] | 
23 | Cc1ccc(NC(=O)CSc2nnc3ccc(-c4cccnc4)nn23)cc1 | 5.8 µM [rising, partial curve, poor fit] | 
24 | O=C(CC1OC(=O)c2ccccc21)NC1CCCCC1 (configuration not stated) | 12.6 µM [falling, partial curve] | 
25 | COc1cc(NC(=O)c2ccco2)c(OC)cc1NC(=O)Nc1cccc(Cl)c1 | 35.5 µM [falling, single point] | 15.8 µM [rising, partial curve, poor fit]
26 | C/[N+]([O-])=C/c1c(OCc2ccccc2)ccc2ccccc12 | 3.16 µM [rising, partial curve, poor fit] | 
27 | CCCCOC(=O)c1ccc(NC(=O)CSc2nncn2C)cc1 | 2.24 µM [rising, full curve, poor fit] | 
28 | C#CCOCCOCCOCCNc1nc(N2CCN(C(=O)CCCCCCCCCCNC(=O)[C@H](CCCCN)n3cc(C)nn3)CC2)nc(N2CCN(C(=O)CCCCCCCCCCNC(=O)[C@H](CCCN=C(N)N)n3cc(C[C@@H](C)CC)nn3)CC2)n1 | 3.26 µM [rising, partial curve, poor fit] | 
29 | O=C(/C=C/c1ccc(Br)o1)NC(c1ccccc1)c1ccccc1 | 23.1 µM [falling, single point] | 
30 | Cc1ccc(NC(=O)CSc2nc(=O)n(Cc3ccccn3)c3c2CCC3)cc1F | 35.5 µM [falling, single point] | 
31 | CC(C)c1nc(NCCN2CCOCC2)c(C#N)c2c1COC(C)(C)C2 | 1 µM [rising, full curve, poor fit] | 
32 | COC(=O)C1=C(NC(=O)COc2ccc3ccccc3c2)CCS1 | 2.06 µM [falling, partial curve, poor fit] | 
33 | CCn1c2ccccc2c2cc(/C=N/NC(=O)c3ccccc3)ccc21 | 7.08 µM [falling, partial curve, poor fit] | 
34 | CC1(C)COC(/C=C/c2cccc([N+](=O)[O-])c2)=N1 | 7.08 µM [falling, partial curve, poor fit] | 
35 | COc1ccc(C2CC(c3c(-c4ccccc4)c4cc(Cl)ccc4[nH]c3=O)=NN2C(=O)CCC(=O)O)cc1 (configuration not stated) | 35.5 µM [falling, single point] | 
36 | C=C(c1ccccc1)c1ccc(N(C)C)cc1 | 2.82 µM [falling, full curve, poor fit] | 
37 | Cn1c(=O)[nH]c(=O)c2c1nc(Br)n2CCCSc1nc2ccccc2o1 | 29.1 µM [falling, single point] | 23.1 µM [falling, single point]
38 | COc1ccccc1/C=C/C(=O)/C=C/c1ccccc1O | 11.2 µM [falling, partial curve, poor fit] | 
